No constants are given. Whether binding was seen depends on the method and setting. Binding seen in cells or lysates may run through a third protein. Some entries that bind do so weakly or less than the wild type. Tags and fused reporters may be left off the sequences shown. Each block holds one molecule with its values, some of them ahead of it.
What was measured:
[1] = target: T1, Flag-labeled PFKP (Phosphofructokinase, Platelet Type), 3x Flag tag (human) (UniProt Q01813); experiment: co-IP
T1 sequence: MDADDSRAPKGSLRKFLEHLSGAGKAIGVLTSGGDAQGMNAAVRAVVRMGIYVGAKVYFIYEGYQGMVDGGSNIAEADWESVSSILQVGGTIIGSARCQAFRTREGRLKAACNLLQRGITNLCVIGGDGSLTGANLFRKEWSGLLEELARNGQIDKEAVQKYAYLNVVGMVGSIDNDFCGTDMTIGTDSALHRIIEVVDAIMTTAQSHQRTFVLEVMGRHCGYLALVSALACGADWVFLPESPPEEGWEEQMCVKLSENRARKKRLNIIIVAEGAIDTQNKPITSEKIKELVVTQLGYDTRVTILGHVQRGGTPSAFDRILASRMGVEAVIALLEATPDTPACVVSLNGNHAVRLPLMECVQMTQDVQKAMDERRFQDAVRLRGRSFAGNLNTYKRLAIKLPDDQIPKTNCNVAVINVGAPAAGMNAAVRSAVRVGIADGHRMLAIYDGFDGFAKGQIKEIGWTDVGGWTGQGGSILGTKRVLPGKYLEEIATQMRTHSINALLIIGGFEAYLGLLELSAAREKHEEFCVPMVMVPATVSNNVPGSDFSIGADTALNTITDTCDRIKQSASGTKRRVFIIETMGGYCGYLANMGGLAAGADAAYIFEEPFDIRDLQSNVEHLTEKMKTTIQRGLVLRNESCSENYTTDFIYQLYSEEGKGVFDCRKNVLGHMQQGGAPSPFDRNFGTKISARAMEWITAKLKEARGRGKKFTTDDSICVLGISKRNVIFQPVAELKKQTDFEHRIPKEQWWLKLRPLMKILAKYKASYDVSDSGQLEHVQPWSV

Sequences of proteins named here, by UniProt entry; tags and fusion partners are left off. Residues count along the entry.
UniProt P30530, residues 26-894: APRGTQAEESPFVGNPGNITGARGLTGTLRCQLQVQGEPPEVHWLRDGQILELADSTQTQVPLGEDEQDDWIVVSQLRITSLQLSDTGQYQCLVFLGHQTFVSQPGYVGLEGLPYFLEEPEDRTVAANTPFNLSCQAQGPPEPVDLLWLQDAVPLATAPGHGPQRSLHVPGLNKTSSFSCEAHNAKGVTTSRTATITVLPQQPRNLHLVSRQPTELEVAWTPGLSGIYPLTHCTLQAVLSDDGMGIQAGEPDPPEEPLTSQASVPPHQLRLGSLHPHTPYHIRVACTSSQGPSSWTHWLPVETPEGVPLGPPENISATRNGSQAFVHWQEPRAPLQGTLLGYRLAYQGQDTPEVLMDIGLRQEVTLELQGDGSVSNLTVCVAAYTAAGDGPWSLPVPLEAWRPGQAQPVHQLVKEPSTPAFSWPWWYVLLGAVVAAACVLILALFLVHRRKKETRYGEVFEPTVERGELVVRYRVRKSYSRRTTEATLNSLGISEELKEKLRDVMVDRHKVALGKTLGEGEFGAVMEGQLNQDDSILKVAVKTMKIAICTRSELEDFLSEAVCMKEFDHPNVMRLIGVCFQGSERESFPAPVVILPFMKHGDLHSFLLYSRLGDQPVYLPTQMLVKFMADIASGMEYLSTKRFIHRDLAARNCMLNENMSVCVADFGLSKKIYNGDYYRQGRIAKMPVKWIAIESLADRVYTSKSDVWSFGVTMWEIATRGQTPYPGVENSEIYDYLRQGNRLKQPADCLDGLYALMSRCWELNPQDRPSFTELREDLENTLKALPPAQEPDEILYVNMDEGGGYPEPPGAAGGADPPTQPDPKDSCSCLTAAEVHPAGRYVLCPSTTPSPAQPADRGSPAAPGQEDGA
UniProt P08581, residues 25-1390: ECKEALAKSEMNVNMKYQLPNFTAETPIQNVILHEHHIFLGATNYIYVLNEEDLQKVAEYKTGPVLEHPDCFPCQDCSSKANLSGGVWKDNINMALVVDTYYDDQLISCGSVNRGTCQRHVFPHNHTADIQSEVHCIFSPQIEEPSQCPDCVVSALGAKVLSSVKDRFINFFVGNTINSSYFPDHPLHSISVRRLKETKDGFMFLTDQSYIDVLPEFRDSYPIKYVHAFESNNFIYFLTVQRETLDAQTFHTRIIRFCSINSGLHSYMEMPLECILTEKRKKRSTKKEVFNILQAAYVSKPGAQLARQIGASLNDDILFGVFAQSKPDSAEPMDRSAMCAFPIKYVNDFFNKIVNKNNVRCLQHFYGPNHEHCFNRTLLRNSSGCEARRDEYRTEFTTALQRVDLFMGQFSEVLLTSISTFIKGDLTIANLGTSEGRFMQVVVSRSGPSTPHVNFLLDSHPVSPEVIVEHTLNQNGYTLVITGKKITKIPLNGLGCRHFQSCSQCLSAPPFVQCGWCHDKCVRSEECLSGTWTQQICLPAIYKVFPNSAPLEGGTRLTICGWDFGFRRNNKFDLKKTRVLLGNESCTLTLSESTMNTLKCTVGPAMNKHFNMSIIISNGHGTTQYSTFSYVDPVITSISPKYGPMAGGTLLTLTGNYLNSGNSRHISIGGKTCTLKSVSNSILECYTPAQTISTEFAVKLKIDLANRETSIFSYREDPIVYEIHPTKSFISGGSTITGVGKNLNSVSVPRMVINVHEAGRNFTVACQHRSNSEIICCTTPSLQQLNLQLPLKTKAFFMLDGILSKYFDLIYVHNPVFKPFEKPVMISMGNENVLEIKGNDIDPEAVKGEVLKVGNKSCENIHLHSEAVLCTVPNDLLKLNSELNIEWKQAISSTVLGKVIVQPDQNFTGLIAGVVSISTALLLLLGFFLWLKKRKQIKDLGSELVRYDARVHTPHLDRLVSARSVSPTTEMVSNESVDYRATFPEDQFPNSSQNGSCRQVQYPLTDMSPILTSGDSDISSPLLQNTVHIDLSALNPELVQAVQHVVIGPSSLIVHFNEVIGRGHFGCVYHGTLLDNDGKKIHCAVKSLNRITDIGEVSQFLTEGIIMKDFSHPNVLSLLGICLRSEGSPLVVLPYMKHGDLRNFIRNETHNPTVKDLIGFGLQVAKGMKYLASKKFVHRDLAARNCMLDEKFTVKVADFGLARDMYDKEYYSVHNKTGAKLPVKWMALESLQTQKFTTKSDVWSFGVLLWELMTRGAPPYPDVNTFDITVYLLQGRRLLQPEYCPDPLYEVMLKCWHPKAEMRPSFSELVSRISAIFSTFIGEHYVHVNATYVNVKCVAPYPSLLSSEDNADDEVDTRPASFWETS

[2] = target: AXL (AXL Receptor Tyrosine Kinase, Anexelekto; tyrosine-protein kinase receptor UFO) (human (endogenous in H1299)) (UniProt P30530); experiment: co-IP

binding [1]: binds
Molecule: AXL (AXL Receptor Tyrosine Kinase, Anexelekto; tyrosine-protein kinase receptor UFO) (from UniProt P30530 26-894)

binding [1]: no binding
Molecule: MET (MET proto-oncogene, Receptor Tyrosine Kinase) (from UniProt P08581 25-1390)

binding [2]: binds
B1: Flag-labeled PFKP (Phosphofructokinase, Platelet Type), 3x Flag tag (enzyme, UniProt Q01813 1-784)
chain: T1 sequence
